Experimental findings from article PMC4359025 are described below.

No constants are given. Whether binding was seen depends on the method and setting. Binding seen in cells or lysates may run through a third protein. Some results given as binding are weak or reduced against the parent protein; the word gives no strength. Sequences can lack the tags named with a protein.

The target in the test is T1, Par-6 fused with Flag epitope (Par6::Flag) (Drosophila (fly)) (UniProt O97111).
T1 sequence: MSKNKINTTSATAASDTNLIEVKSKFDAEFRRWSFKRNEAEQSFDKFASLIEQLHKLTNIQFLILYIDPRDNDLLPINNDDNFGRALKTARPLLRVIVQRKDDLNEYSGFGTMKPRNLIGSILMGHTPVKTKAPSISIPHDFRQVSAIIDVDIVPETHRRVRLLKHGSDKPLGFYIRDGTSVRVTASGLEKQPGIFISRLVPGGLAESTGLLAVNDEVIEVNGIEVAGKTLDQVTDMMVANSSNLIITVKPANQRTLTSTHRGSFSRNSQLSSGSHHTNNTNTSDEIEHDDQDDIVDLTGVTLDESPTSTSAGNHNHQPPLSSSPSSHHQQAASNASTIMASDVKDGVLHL
Put plainly: co-IP; S2 cell lysates transfected with control DNA, HA::Pbl, or HA::Pbl and Par6::FLAG; 5 ug anti-HA or anti-Flag antibody, Protein A/G magnetic beads; western blot with anti-Flag, anti-aPKC or anti-HA. A general note: Immunoblotting shows a protein as a band on a membrane.

B1: Endogenous aPKC protein (protein, UniProt A1Z9X0 1-606)
chain: MQKMPSQILNDGSSVSLNSASMNMANTPNSITVKTAYNGQIIITTINKNISYEELCYEIRNICRFPLDQPFTIKWVDEENDPCTISTKMELDEAIRLYEMNFDSQLVIHVFPNVPQAPGLSCDGEDRSIYRRGARRWRKLYRVNGHIFQAKRFNRRAFCAYCQDRIWGLGRQGFKCIQCKLLVHKKCHKLVQKHCTDQPEPLVKERAEESSDPIPVPLPPLPYEAMSGGAEACETHDHAHIVAPPPPEDPLEPGTQRQYSLNDFELIRVIGRGSYAKVLMVELRRTRRIYAMKVIKKALVTDDEDIDWVQTEKHVFETASNHPFLVGLHSCFQTPSRLFFVIEFVRGGDLMYHMQRQRRLPEEHARFYAAEISLALNFLHEKGIIYRDLKLDNVLLDHEGHIKLTDYGMCKEGIRPGDTTSTFCGTPNYIAPEILRGEDYGFSVDWWALGVLLYEMLAGRSPFDLAGASENPDQNTEDYLFQVILEKTIRIPRSLSVRAASVLKGFLNKNPADRLGCHRESAFMDIVSHPFFKNMDWELLERKQVTPPFKPRLDSDRDLANFPPEFTGEAVQLTPDDDHVIDNIDQSEFEGFEYVNPLLMSLEDCV
For the molecule B1, the binding result was “binds”.
